Test results as given in PubChem BioAssay AID651803 (National Center for Advancing Translational Sciences (NCATS), 2012).
The campaign covered roughly 1,200 compounds. Fewer than 10 were called active. The call rests on the fitted dose curve; in most records, active means well fitted curve in the direction sought with a large enough effect; inconclusive means small, poorly fitted or top-dose-only effect, or another doubt; inactive means no such curve, though single readings can be large or run the other way. Some of the results follow.

Protein sequences, listed by entry. Tags and fused reporters are not part of them. Lines headed by an entry give the natural chain unless they say otherwise; changes in a name come on top.
UniProt P11308: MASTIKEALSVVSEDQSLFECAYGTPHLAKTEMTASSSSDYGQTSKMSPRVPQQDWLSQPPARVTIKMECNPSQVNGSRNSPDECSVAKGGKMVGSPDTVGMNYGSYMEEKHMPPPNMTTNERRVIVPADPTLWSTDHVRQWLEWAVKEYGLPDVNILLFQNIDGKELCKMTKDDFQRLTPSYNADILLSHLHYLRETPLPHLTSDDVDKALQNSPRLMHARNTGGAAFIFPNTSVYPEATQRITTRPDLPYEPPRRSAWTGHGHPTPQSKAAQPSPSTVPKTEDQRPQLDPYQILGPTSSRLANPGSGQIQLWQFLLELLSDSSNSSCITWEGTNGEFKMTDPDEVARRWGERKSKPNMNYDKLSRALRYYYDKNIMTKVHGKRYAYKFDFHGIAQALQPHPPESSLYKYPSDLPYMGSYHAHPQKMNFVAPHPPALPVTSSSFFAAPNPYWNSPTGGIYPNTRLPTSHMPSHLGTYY

The compounds below were run against Transcriptional regulator ERG (Homo sapiens) (UniProt P11308) (assay: qHTS for Small Molecule Inhibitors of the ERG Ets/DNA interaction: TR assay against cherry picks). Details: ERG Ets domain-DNA fluorescence polarization, Texas red probe; at 154 µM (top of the series).
In short: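 Polarization read sequentially for fluorescein (ex 480/em 535 nm) and Texas red (ex 555/em 632 nm) probes, 5 nM and 100 nM solutions, displaced from His-ERG Ets domain (1 uM solution), pH 7.5 Tris/KCl/EDTA/DTT buffer.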
Further: % of control where 0% means no effect.

Activity change, negative = inhibition, inactive:
CCOc1ccccc1NC(=O)COc1ccc2ccc(=O)oc2c1 13.9%, O=C(Nc1cc(-c2nc3cc(Cl)ccc3o2)ccc1Cl)c1cccs1 51%, Cc1c(C(=O)Cc2ccccc2)n(C)c2ccccc12 -7.16%, O=C(Nc1cc(C(F)(F)F)ccc1N1CCCCC1)c1cccc([N+](=O)[O-])c1 0.649%, N#CC(C(=O)NCc1ccccc1)c1nc2ccccc2nc1N1CCCC1 (stereo unspecified) 9.57%, COc1ccc(N(C(=O)c2snc(C(N)=O)c2N)C(C(=O)NCC2CCCO2)c2ccc3ncccc3c2)cc1OC (stereo unspecified) -0.522%, CCCN(CC(=O)Nc1ccc(OC)c(OC)c1)CC(=O)Nc1ccc(F)c(F)c1F -6.81%, CCc1cc[n+](-c2nc([O-])sc2C=O)cc1 18.3%, CC1CCCCC1NC(=S)Nc1ccc(Cl)cc1Cl (stereo unspecified) -6.59%, COc1ccccc1N(C)S(=O)(=O)c1ccc(C(=O)OCC(=O)N2CCCCCC2)cc1 -6.24%, CCn1cc(CN(C)C(=O)/C=C/c2ccc([N+](=O)[O-])cc2)c(C)n1 -8.16%, Cc1nccn1C[C@@H]1CCc2c(c3ccccc3n2C)C1=O -7.4%, Cc1ccccc1NS(=O)(=O)c1ccc(OCCNS(C)(=O)=O)cc1 -5.18%, CCc1cccc(C)c1NC(=O)CSc1nc(C)c(C)o1 11%, Cc1cc(C)cc(N(C(=O)c2csnn2)C(C(=O)NC(C)(C)C)c2ccncc2)c1 (stereo unspecified) 6.77%, O=C(O)c1cc2nc(-c3ccccc3)cc(-c3ccccc3)n2n1 -1.39%, O=C1CCN(S(=O)(=O)c2ccc(Br)cc2)CCN1 -10.5%, CC(C)Cc1nnc(NS(=O)(=O)c2ccc([N+](=O)[O-])cc2)s1 5.75%, COc1ccc(-c2cc(N)n(S(=O)(=O)Cc3ccccc3)n2)c(OC)c1 -1.88%, CCN(CC)S(=O)(=O)c1ccc2c(c1)c(=O)c(C(=O)NCCc1ccccc1)cn2C -18.7%, O=C(C1CC(=O)N(c2ccc(Cl)cc2)C1)N1CCCCCC1 (stereo unspecified) -0.46%, Cc1[nH]cnc1CN1CCc2c(c3ccccc3n2C)C1=O -11.6%, Oc1cncc(Cc2ccccc2)c1 6.96%, Cc1ccc(S(=O)(=O)NNC(=S)NC(=O)c2ccc([N+](=O)[O-])cc2)cc1 -11.6%, Cc1nn2c(=O)c3c4c(sc3nc2n1-c1ccccc1)COC(C)(C)C4 6.15%, CCOC(=O)c1cn2nc(Oc3ccc(NC(C)=O)cc3)ccc2n1 -15%, O=C(NNC(=O)c1sccc1-n1cccc1)Nc1ccccc1 11.1%, Cc1ccc(F)cc1NC(=O)CCc1c(C)[nH]c(=O)c(C#N)c1C 6.14%, c1ccc(N=Nc2ccc3cccccc2-3)cc1 -9.75%, COC(=O)C1CSC(C(=O)OC)N1C(=O)CN1CCN(c2ccccc2)CC1 (stereo unspecified) -3.34%, CN(CC(=O)NC(=O)NC1CCCCC1)CC(=O)Nc1ccc(Cl)cc1 1.09%, Cc1ccc(-n2c(C)cc(C(=O)NS(=O)(=O)c3ccc(C)cc3)c2C)cc1 -0.476%, O=C(O)CNC(=O)/C(=C\c1ccc2c(c1)OCO2)NC(=O)c1ccc(Br)cc1 3.73%, CC(=O)c1cccc(NC(=S)N2CCN(S(=O)(=O)c3ccc(F)cc3)CC2)c1 -4.67%, CCc1c(C(=O)N/N=C/c2sccc2C)nnn1-c1nonc1N 8.76%, Cc1ccc(C)c(N2CCN(C(=O)C(C)n3c(C)c4cnn(-c5ccccc5)c(=O)c4c3C)CC2)c1 (stereo unspecified) 1.33%, Cc1noc(C)c1C(=O)NCc1cccs1 5.33%, Cc1ccc(/C=C2\Sc3ccccc3C2=O)s1 -2.68%, CCNC(=S)NC(=NCc1cccnc1)Nc1nc(C)cc(C)n1 -5.55%, Cc1cc(OCc2cc3c(cc2Cl)OCO3)c2c(C)cc(=O)oc2c1 19.4%, CS(=O)(=O)N1c2cccc3cccc(c23)S1(=O)=O -3.32%, CC(=O)Nc1ccc(S(=O)(=O)Nc2nc3ccccc3nc2Nc2ccc(O)c(C(=O)O)c2)cc1 83.7%, CC1(C)CC2CC(C)(CN2C(=O)c2ccc([N+](=O)[O-])cc2)C1 (stereo unspecified) 0.742%, CN(Cc1ccccc1)C(=O)COC(=O)c1cc(=O)[nH]c2ccccc12 -6.97%, COCCN(Cc1cc2cc(C)ccc2n2nnnc12)C(=S)Nc1ccc(OC)cc1 3%, Nc1cnccc1C(=O)O 33.6%, CC(=O)Nc1ccc(S(=O)(=O)N2CCCC(C(=O)N3CCN(c4ccccc4)CC3)C2)cc1 (stereo unspecified) 2.26%, O=C(CC1C[C@H](C(=O)N2CCOCC2)[C@@]2(CCC3CCCC3)c3[nH]c4ccccc4c3CCN2C1=O)NCC12CC3CC(CC(C3)C1)C2 (stereo partly specified) -14.2%, C[C@@H]1CN([C@H](C)CO)C(=O)c2cc(NC(=O)Nc3ccc(F)cc3)ccc2O[C@H]1CN(C)C(=O)Nc1ccc(C(F)(F)F)cc1 -15.9%, CCNC(=S)N1CCC(C(O)(c2ccccc2)c2ccccc2)CC1 11.6%, C=CCOc1ccc(C(c2c(C(=O)O)[nH]c3ccccc23)c2c(C(=O)O)[nH]c3ccccc23)cc1 -13.4%, Cc1[nH]c2ccc(C(=O)OCC(=O)Nc3cccc(S(N)(=O)=O)c3)cc2c1C -7.29%, Cc1cccc(N2C(=O)CC(Cn3nc(C)cc3C)C2=O)c1 (stereo unspecified) 3.34%, COc1ccc(CCNC(=O)CCNC(=O)c2ccco2)cc1 21.2%, Oc1ccc(NCc2ccc(OCc3ccccc3Cl)cc2)cc1 -17%, CNC(=O)CCSSCCC(=O)NC 0.288%, CSCC[C@H](NC(=O)OC(C)(C)C)C(=O)N1CCC(C(=O)N[C@@H](C)C(=O)NCc2ccc(F)cc2)CC1 -1.72%, CCC(Oc1ccccc1F)C(=O)NCCCn1ccnc1 (stereo unspecified) 5.82%, CCc1ccc(NC(=O)/C(C#N)=C/c2cc3ccc(C)cc3nc2N2CCOCC2)cc1 24.7%, Cc1cc(C)cc(N2C(=O)c3nccnc3C2=O)c1 5.53%, CCOc1cc(CNCC2CCCN2CC)cc(Cl)c1OC (stereo unspecified) 1.51%, CS(=O)(=O)N(CC(=O)Nc1ccccc1)c1cccc(Cl)c1Cl -21.4%, CCOc1ccc(-c2ncncc2-c2ccccc2OC)c(O)c1 -4.28%, Cc1nc(-c2ccc(F)cc2)c(CC(=O)Nc2ccc(C)c(S(=O)(=O)N3CCOCC3)c2)s1 -0.727%, Cc1cc2cc(CNC(=O)c3ccc(S(=O)(=O)N4CCCCC4)cc3)ccc2n1C 20.1%, CCOC(=O)c1oc2cc(OCC(=O)OC)ccc2c(=O)c1-c1ccc(OC)c(OC)c1 2.07%, COCCOC1CCN(Cc2cn(Cc3ccccc3)nc2-c2cc3ccccc3o2)CC1 -2.78%, COc1ccc(/C=C/C(=O)Nc2c(C(=O)O)[nH]c3ccccc23)cc1OC -17.3%, CC(NC(=O)c1ccco1)c1nc(-c2ccc(C(C)(C)C)cc2)no1 (stereo unspecified) 0%, CCN(CC)c1ccc([N+](=O)[O-])cc1C(=O)O 5.41%, COc1ccc(CCNC(=O)Cn2c(=O)n(CCCC(=O)NCc3ccco3)c(=O)c3sccc32)cc1OC 1.75%, O=C(CN1CCCCC1)Nc1ccc(Br)cc1[N+](=O)[O-] -9.83%, CC(=O)NCc1ccc(S(=O)(=O)N2CCN(c3ccccn3)CC2)cc1 2.4%, COc1ccc(N2CC(NC(=O)c3ccc4c(c3)OCO4)CC2=O)cc1 (stereo unspecified) -3.95%, NC(=O)c1ccc(N2CCN(c3ccccc3O)CC2)c([N+](=O)[O-])c1 -4.48%, CN(C)c1nc(N)nc(Cn2nnc(-c3ccc(C(F)(F)F)cc3)n2)n1 3.53%, Nc1nc(Cl)c2ncn(C3OC(CO)C(O)C3O)c2n1 (stereo unspecified) 0%, O=C(NCc1ccc2c(c1)OCO2)C1CCN(S(=O)(=O)N2CCCCC2)CC1 5.53%, O=C1C(SCCO)=C(SCCO)C(=O)c2ccccc21 -12.1%, CNC(=S)NNc1nncc2ccccc12 -0.784%, COc1ccc(CC(=O)Nc2ccc(-c3nnc(-c4ccccc4)o3)cc2)cc1 5.64%, CCC(OC(=O)CN1C(=O)C(=O)c2ccccc21)C(=O)Nc1ccc(S(N)(=O)=O)cc1 (stereo unspecified) 7.55%, Cc1ccc(NC(=O)Cn2cc(C(=O)C3CC3)c3ccccc32)c(C)c1 7.02%, COc1ccc(NC(=O)C2C3CCC(O3)C2C(=O)O)c(C)c1 (stereo unspecified) 2.89%, CC1CCCC(NC(=O)COC(=O)/C=C/c2ccco2)C1C (stereo unspecified) 2.09%, Cc1nc2nc[nH]n2c(=O)c1NS(=O)(=O)c1ccc(F)cc1 10.3%, Cc1cccc(NC(=O)c2ccccc2NC(=O)c2ccco2)c1 -3.95%, CCOC(=O)C1CCCN(C(=O)c2nn(-c3ccc(C)cc3)c(=O)n(C)c2=O)C1 (stereo unspecified) -21.4%, Cc1cccc(-c2cnn(-c3cccc([N+](=O)[O-])c3)c2N)c1 -15.3%, CCC(C)NCCOc1ccc(C)cc1[N+](=O)[O-] (stereo unspecified) 11.8%, Cc1ccc(-c2[nH]c(-c3ccc(C(=O)O)cc3)nc2-c2ccccc2)cc1 -7.62%
